This passage reports survivor count and T/C results from PubChem BioAssay AID248 (DTP/NCI, 2004).

The list shows only some results of the screen, not a fair sample: it gathers tests that were run many times, whatever their T/C, doses with no T/C, and many T/C values between a quarter and a half above the control. Further doses and runs are listed elsewhere. T/C gives the treated animals as a percentage of the vehicle group. Some doses have a count of surviving animals in place of a T/C: the source holds a T/C of zero for them, seemingly a mark for toxic or unscored doses. Some doses without a T/C left all or most animals alive at the check, yet need not have been tolerated: survival well below the control is almost never listed, so the zero probably covers shortened survival too. Survivors were counted at the toxicity check, usually on the fifth day, unless a day is given; later deaths do not show. Schedules are NCI's codes, read here as Q, the interval in days (D) or hours (H), X, the number of doses. Some molecules as drawn cover several salts, stereoisomers or complexes of the source; a dose is that of the sample tested. Where survival is the endpoint, this PubChem deposit counts one and a half times the control or more as active, and values a quarter to a half above the control carry no call in these data; other NCI protocols may use other cut-offs. Some doses were run more than once; their values stand side by side, smallest first. Some T/C values are followed by the survivors on the day toxicity was checked, most often the fifth; without a count, all were alive then.

This test concerns L1210 leukemia ip in BDF1 mice, survival T/C. Kind of test: NCI In Vivo Anticancer Drug Screen. Data for tumor model L1210 Leukemia (intraperitoneal) in B6D2F1 (BDF1) mice. Conditions: higher T/C = longer survival.
Where [1] appears, read: T/C endpoint: mean survival time, dose: 200.0 mg/kg/injection, schedule: Q01DX001 (ip), vehicle: saline.
[2] abbreviates: T/C endpoint: mean survival time, dose: 400.0 mg/kg/injection, schedule: Q01DX009 (ip), vehicle: saline with Tween-80.
Setting [3] is: T/C endpoint: mean survival time, dose: 200.0 mg/kg/injection, schedule: Q04DX003 (ip), vehicle: saline with Tween-80.
The mark [4] stands for this setting: T/C endpoint: mean survival time, dose: 400.0 mg/kg/injection, schedule: Q04DX003 (ip), vehicle: saline with Tween-80.
The mark [5] stands for this setting: T/C endpoint: mean survival time, dose: 400.0 mg/kg/injection, schedule: Q01DX001 (ip), vehicle: saline.
Where [6] appears, read: T/C endpoint: mean survival time, dose: 400.0 mg/kg/injection, schedule: Q01DX001 (ip), vehicle: carboxymethylcellulose (CMC).
[7] abbreviates: T/C endpoint: mean survival time, dose: 200.0 mg/kg/injection, schedule: Q01DX009 (ip), vehicle: saline.
[8] abbreviates: T/C endpoint: mean survival time, dose: 100.0 mg/kg/injection, schedule: Q01DX009 (ip), vehicle: saline.

Consider `Oc1c(Br)cc(Br)cc1/C=N/c1nc(-c2ccccc2)cs1.Oc1c(Br)cc(Br)cc1/C=N/c1nc(-c2ccccc2)cs1.[Co]`, for which the survivor count under setting [1] is 3 of 3.
On to `COc1cc(OC)c(OC)cc1OC`, for which the survivor count under setting [2] is reported as 0 of 6.
On to `C[N+](C)(CC(=O)Nc1ccc(Cl)c(C(F)(F)F)c1)Cc1ccc(Cl)cc1`, for which the survivor count is 2 of 6 under setting [3] and 0 of 6 under setting [4].
Consider `S=C1NC(c2cccc(Cl)c2)N2C(=S)NC(c3cccc(Cl)c3)N12` (configuration not stated), for which the survivor count (T/C endpoint: mean survival time, dose: 100.0 mg/kg/injection, schedule: Q01DX009 (ip), vehicle: gum acacia) was 6 of 6.
For the compound `O=C(O)c1[nH]c(=O)[nH]c(=O)c1F.[Ga]`, the T/C by setting is: (T/C endpoint: mean survival time, dose: 36.0 mg/kg/injection, schedule: Q01DX001 (ip), vehicle: saline with Tween-80) 128 % of control; (T/C endpoint: mean survival time, dose: 54.0 mg/kg/injection, schedule: Q01DX001 (ip), vehicle: saline with Tween-80) 142 % of control; (T/C endpoint: mean survival time, dose: 80.0 mg/kg/injection, schedule: Q01DX001 (ip), vehicle: saline with Tween-80) 136 % of control; (T/C endpoint: mean survival time, dose: 100.0 mg/kg/injection, schedule: Q01DX001 (ip), vehicle: saline with Tween-80) 141 % of control; (T/C endpoint: mean survival time, dose: 118.0 mg/kg/injection, schedule: Q01DX001 (ip), vehicle: saline with Tween-80) 142 % of control. Besides, the survivor count is, setting by setting: (T/C endpoint: mean survival time, dose: 100.0 mg/kg/injection, schedule: Q01DX009 (ip), vehicle: saline with Tween-80) 6 of 6; (T/C endpoint: mean survival time, dose: 200.0 mg/kg/injection, schedule: Q01DX009 (ip), vehicle: saline with Tween-80) 4 of 6; (T/C endpoint: mean survival time, dose: 266.0 mg/kg/injection, schedule: Q01DX001 (ip), vehicle: saline with Tween-80) 3 of 6; (T/C endpoint: mean survival time, dose: 400.0 mg/kg/injection, schedule: Q01DX001 (ip), vehicle: saline with Tween-80) 0 of 6; under setting [2], 0 of 6; under setting [4], 2 of 6. The survivor count (T/C endpoint: mean survival time, dose: 600.0 mg/kg/injection, schedule: Q01DX001 (ip), vehicle: saline with Tween-80) is given as 0 of 6.
Take `O=C(O)c1cccc(F)c1O`: under setting [5], the survivor count is given as 1 of 4.
As for `Oc1ccc(Cl)c2cccnc12`, under setting [6], the survivor count was 2 of 4.
As to `Cc1cc(=O)[nH]c2c1CCC2`, the survivor count was 3 of 6 under setting [7] and 5 of 6 (T/C endpoint: mean survival time, dose: 400.0 mg/kg/injection, schedule: Q04DX003 (ip), vehicle: saline).
With `COc1ccc(COC(=O)Nc2ccccc2C(F)(F)F)cc1`, the survivor count (T/C endpoint: mean survival time, dose: 400.0 mg/kg/injection, schedule: Q01DX009 (ip), vehicle: gum acacia) is on record as 3 of 6.
Turning to `COc1ccc([I+]c2ccc(OC)cc2)cc1`, the survivor count (T/C endpoint: mean survival time, dose: 25.0 mg/kg/injection, schedule: Q01DX009 (ip), vehicle: saline) is 6 of 6; the survivor count (T/C endpoint: mean survival time, dose: 50.0 mg/kg/injection, schedule: Q01DX009 (ip), vehicle: saline) is 2 of 6; the survivor count under setting [8] is 0 of 6; the survivor count (T/C endpoint: mean survival time, dose: 100.0 mg/kg/injection, schedule: Q04DX003 (ip), vehicle: saline with Tween-80) is recorded as 2 of 6; the survivor count (T/C endpoint: mean survival time, dose: 200.0 mg/kg/injection, schedule: Q04DX003 (ip), vehicle: acetone) is 1 of 6; the survivor count under setting [3] is recorded as 0 of 6. Also, the survivor count is on record as 1 of 6 under setting [5] and 0 of 6 under setting [4].
Consider `Nc1c(Cl)cc2c(c1Cl)Cc1c-2cc(Br)c(N)c1Br`, for which the T/C was 145 % of control (T/C endpoint: mean survival time, dose: 25.0 mg/kg/injection, schedule: Q01DX001 (ip), vehicle: saline) and 142 % of control [5 of 6 alive] (T/C endpoint: mean survival time, dose: 50.0 mg/kg/injection, schedule: Q01DX001 (ip), vehicle: saline). Besides, the survivor count (T/C endpoint: mean survival time, dose: 100.0 mg/kg/injection, schedule: Q01DX001 (ip), vehicle: saline) was 2 of 6 and the survivor count under setting [1] is recorded as 4 of 6.
As for `CC(=O)CC(=O)N(C)c1ccccc1`, the survivor count (T/C endpoint: mean survival time, dose: 300.0 mg/kg/injection, schedule: Q01DX001 (ip), vehicle: carboxymethylcellulose (CMC)) was 1 of 6.
For `CC(C)CC1(C(C)C)C(=O)NC(=S)NC1=O`, the survivor count is reported as 1 of 6 (T/C endpoint: mean survival time, dose: 75.0 mg/kg/injection, schedule: Q01DX001 (ip), vehicle: saline); 2 of 6 (T/C endpoint: mean survival time, dose: 150.0 mg/kg/injection, schedule: Q01DX001 (ip), vehicle: saline); 0 of 6 (T/C endpoint: mean survival time, dose: 300.0 mg/kg/injection, schedule: Q01DX001 (ip), vehicle: saline).
In the case of `NCCc1ccc(O)c(O)c1`, the T/C (T/C endpoint: mean survival time, dose: 100.0 mg/kg/injection, schedule: Q01DX009 (ip), vehicle: Klucel (hydroxypropylcellulose) (HPC)) was 131 % of control [5 of 6 alive]; the T/C under setting [8] was 128 % of control; the T/C (T/C endpoint: mean survival time, dose: 100.0 mg/kg/injection, schedule: Q03HX004 (ip), vehicle: saline) is 128 % of control [4 of 6 alive]; the T/C (T/C endpoint: mean survival time, dose: 200.0 mg/kg/injection, schedule: Q01DX009 (ip), vehicle: Klucel (hydroxypropylcellulose) (HPC)) was 127 % of control; the T/C under setting [7] was 133 and 146 % of control; the T/C (T/C endpoint: mean survival time, dose: 200.0 mg/kg/injection, schedule: Q04HX003 (ip), vehicle: saline) is 126 % of control [5 of 6 alive]. The T/C runs as follows: (T/C endpoint: mean survival time, dose: 300.0 mg/kg/injection, schedule: Q01DX009 (ip), vehicle: saline) 131 % of control; (T/C endpoint: mean survival time, dose: 400.0 mg/kg/injection, schedule: Q01DX009 (ip), vehicle: saline) 127 % of control; (T/C endpoint: mean survival time, dose: 400.0 mg/kg/injection, schedule: Q04HX003 (ip), vehicle: saline) 125 % of control; (T/C endpoint: median survival time, dose: 80.0 mg/kg/injection, schedule: Q12HX018 (ip), vehicle: saline) 126 % of control [9 of 10 alive]; (T/C endpoint: median survival time, dose: 160.0 mg/kg/injection, schedule: Q01DX009 (ip), vehicle: saline) 132 % of control; (T/C endpoint: median survival time, dose: 160.0 mg/kg/injection, schedule: Q02DX005 (ip), vehicle: saline) 125 % of control. Moreover, the T/C reads like this: (T/C endpoint: median survival time, dose: 160.0 mg/kg/injection, schedule: Q04HX020 (ip), vehicle: saline) 128 % of control; (T/C endpoint: median survival time, dose: 160.0 mg/kg/injection, schedule: Q11DX017 (ip), vehicle: saline) 129 % of control; (T/C endpoint: median survival time, dose: 160.0 mg/kg/injection, schedule: Q12HX010 (ip), vehicle: saline) 129 % of control; (T/C endpoint: median survival time, dose: 160.0 mg/kg/injection, schedule: Q12HX018 (ip), vehicle: saline) 126 % of control [8 of 10 alive]; (T/C endpoint: median survival time, dose: 320.0 mg/kg/injection, schedule: Q01DX009 (ip), vehicle: saline) 137 % of control; (T/C endpoint: median survival time, dose: 320.0 mg/kg/injection, schedule: Q04HX020 (ip), vehicle: saline) 134 % of control [8 of 10 alive]. Moreover, the T/C is 140 % of control (T/C endpoint: median survival time, dose: 320.0 mg/kg/injection, schedule: Q11DX017 (ip), vehicle: saline); 136 % of control (T/C endpoint: median survival time, dose: 320.0 mg/kg/injection, schedule: Q12HX010 (ip), vehicle: saline); 134 % of control [8 of 10 alive] (T/C endpoint: median survival time, dose: 320.0 mg/kg/injection, schedule: Q12HX018 (ip), vehicle: saline); 130 % of control (T/C endpoint: median survival time, dose: 640.0 mg/kg/injection, schedule: Q01DX009 (ip), vehicle: saline); 144 % of control [9 of 10 alive] (T/C endpoint: median survival time, dose: 640.0 mg/kg/injection, schedule: Q11DX017 (ip), vehicle: saline); 136 % of control [8 of 10 alive] (T/C endpoint: median survival time, dose: 640.0 mg/kg/injection, schedule: Q12HX010 (ip), vehicle: saline). Moreover, where the note is “T/C endpoint: mean survival time, dose: 1200.0 mg/kg/injection, schedule: Q01DX009 (ip), vehicle: saline”, the survivor count is 2 of 6.
Turning to `CCOC(=O)c1ccc(N(CCC(=O)CBr)C(C)=O)cc1`, the survivor count by setting is: (T/C endpoint: mean survival time, dose: 80.0 mg/kg/injection, schedule: Q01DX001 (ip), vehicle: carboxymethylcellulose (CMC)) 0 of 4; (T/C endpoint: mean survival time, dose: 100.0 mg/kg/injection, schedule: Q01DX001 (ip), vehicle: carboxymethylcellulose (CMC)) 0 of 4; (T/C endpoint: mean survival time, dose: 200.0 mg/kg/injection, schedule: Q01DX001 (ip), vehicle: carboxymethylcellulose (CMC)) 0 of 4; under setting [6], 0 of 4.
